Results are given in words; binding and its absence hold for the method and conditions named. In cells and extracts the contact can be indirect. Some results given as binding are weak or reduced against the parent protein; the word gives no strength. For some assays here: Sequences can lack the tags named with a protein.
Experiments:
[1] = molecular target: myc-tagged full-length human plexin B3 (pSecTag2B/B3) (human) (UniProt Q9ULL4); test: co-IP; COS-7 cells co-transfected, lysed 30 h after transfection in 20 mM tris-HCl pH 7.5, 150 mM NaCl, 1% TritonX-100; IP with pAbB3-B, anti-myc, anti-FLAG, anti-HA or anti-Rin and protein-A agarose at 4°C; washes with 500 mM NaCl, 0,1% TritonX-100; Western blot
[2] = molecular target: T1, FLAG-tagged full-length human Rin (pFLAG/Rin) (human) (UniProt Q99578); test: as above
T1 sequence: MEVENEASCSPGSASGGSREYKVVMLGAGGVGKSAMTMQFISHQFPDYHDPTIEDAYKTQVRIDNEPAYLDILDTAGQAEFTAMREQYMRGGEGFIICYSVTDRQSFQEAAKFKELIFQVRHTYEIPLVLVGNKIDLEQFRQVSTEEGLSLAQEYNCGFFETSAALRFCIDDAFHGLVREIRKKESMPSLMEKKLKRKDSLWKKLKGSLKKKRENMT

Amino acid sequences for entries named in this document (tags omitted). Residues count along the entry.
UniProt O15031, residues 20-1838: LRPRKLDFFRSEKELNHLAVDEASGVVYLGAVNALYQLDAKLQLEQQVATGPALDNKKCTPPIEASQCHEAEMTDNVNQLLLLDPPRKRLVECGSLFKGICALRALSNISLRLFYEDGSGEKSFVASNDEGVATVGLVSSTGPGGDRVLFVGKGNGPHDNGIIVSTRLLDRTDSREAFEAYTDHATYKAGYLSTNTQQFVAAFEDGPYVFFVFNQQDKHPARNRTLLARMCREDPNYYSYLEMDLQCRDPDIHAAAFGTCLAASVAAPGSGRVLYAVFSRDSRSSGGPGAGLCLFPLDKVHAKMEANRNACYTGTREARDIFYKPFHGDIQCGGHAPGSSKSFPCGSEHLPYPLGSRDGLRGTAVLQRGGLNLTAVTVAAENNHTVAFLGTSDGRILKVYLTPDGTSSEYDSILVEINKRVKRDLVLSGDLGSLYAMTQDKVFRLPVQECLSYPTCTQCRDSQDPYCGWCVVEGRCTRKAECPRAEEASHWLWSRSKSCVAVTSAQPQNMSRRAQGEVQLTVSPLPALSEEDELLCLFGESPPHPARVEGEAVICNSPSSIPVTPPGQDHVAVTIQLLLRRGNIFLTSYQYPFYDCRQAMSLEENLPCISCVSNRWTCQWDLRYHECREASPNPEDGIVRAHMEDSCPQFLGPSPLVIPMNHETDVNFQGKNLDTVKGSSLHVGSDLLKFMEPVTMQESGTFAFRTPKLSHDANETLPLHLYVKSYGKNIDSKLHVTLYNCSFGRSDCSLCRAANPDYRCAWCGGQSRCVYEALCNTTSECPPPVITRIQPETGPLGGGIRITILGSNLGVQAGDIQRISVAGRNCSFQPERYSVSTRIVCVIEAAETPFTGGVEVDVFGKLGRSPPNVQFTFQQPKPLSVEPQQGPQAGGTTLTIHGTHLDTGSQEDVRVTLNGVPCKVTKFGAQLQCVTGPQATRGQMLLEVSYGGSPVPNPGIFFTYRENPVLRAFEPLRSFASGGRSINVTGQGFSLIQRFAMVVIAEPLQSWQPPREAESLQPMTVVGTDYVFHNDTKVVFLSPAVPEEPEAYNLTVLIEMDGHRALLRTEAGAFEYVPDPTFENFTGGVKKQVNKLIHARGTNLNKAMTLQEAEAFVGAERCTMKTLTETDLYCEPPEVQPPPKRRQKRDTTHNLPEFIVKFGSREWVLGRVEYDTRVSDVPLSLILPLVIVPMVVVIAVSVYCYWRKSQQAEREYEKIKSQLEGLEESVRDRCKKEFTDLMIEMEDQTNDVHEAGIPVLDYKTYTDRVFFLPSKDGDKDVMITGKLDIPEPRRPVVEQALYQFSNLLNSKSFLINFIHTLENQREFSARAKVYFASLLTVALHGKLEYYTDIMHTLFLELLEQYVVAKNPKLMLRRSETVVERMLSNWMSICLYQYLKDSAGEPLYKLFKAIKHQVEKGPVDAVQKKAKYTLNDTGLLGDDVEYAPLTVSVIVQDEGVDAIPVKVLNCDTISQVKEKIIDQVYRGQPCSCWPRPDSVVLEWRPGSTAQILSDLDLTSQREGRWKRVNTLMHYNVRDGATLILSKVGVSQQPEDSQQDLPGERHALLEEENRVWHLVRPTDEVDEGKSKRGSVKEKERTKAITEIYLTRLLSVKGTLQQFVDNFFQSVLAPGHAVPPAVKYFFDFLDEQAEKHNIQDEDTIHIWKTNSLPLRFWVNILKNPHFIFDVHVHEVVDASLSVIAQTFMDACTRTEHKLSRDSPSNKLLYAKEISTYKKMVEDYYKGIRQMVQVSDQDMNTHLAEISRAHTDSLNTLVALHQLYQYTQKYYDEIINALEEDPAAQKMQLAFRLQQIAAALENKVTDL
UniProt Q9UIW2, residues 27-1896: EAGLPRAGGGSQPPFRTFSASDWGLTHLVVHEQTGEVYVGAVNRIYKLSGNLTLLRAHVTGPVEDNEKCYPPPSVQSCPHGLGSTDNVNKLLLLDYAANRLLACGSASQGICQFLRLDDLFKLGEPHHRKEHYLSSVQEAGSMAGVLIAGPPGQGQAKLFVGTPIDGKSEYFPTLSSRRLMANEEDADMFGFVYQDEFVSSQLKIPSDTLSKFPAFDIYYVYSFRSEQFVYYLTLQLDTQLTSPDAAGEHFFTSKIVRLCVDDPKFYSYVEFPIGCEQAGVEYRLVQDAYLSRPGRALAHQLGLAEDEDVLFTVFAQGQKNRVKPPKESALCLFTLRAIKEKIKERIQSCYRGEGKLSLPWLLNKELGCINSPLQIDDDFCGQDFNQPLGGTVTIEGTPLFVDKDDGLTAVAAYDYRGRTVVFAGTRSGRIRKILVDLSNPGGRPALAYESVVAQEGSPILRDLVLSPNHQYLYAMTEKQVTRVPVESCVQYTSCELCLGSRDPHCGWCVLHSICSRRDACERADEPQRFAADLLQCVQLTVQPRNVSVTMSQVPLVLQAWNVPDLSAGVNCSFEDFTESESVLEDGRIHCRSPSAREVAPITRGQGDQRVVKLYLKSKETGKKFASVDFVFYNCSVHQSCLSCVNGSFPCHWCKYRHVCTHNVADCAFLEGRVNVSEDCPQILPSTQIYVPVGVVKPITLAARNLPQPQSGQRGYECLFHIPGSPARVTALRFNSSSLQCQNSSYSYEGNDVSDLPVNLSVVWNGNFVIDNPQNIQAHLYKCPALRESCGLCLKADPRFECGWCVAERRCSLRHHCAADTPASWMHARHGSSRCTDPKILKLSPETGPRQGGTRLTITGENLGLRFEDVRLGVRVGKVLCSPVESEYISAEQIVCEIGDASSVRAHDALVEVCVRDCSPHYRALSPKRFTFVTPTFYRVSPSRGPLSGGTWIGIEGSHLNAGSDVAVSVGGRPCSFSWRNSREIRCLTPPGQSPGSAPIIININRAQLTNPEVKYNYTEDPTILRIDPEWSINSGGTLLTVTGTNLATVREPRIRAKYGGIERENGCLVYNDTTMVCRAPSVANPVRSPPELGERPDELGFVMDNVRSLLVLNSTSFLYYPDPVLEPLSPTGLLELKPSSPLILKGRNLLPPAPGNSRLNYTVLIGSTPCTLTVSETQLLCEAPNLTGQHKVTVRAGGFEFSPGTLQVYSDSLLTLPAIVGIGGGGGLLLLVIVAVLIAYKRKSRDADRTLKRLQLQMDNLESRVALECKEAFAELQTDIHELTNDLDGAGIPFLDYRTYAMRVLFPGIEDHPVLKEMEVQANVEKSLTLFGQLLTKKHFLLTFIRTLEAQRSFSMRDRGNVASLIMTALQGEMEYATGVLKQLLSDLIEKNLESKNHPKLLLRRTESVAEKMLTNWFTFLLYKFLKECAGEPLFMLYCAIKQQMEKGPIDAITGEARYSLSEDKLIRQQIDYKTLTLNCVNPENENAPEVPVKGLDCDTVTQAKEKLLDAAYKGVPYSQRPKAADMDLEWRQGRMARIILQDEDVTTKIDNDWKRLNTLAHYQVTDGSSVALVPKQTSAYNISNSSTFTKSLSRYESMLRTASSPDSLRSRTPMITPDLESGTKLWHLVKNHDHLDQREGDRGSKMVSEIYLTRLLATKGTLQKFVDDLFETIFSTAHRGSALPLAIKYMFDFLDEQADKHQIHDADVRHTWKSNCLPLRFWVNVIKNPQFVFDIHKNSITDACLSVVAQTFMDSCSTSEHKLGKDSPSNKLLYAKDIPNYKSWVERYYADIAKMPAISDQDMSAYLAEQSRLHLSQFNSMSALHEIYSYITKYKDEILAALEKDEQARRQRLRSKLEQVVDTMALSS
UniProt O43157, residues 20-2135: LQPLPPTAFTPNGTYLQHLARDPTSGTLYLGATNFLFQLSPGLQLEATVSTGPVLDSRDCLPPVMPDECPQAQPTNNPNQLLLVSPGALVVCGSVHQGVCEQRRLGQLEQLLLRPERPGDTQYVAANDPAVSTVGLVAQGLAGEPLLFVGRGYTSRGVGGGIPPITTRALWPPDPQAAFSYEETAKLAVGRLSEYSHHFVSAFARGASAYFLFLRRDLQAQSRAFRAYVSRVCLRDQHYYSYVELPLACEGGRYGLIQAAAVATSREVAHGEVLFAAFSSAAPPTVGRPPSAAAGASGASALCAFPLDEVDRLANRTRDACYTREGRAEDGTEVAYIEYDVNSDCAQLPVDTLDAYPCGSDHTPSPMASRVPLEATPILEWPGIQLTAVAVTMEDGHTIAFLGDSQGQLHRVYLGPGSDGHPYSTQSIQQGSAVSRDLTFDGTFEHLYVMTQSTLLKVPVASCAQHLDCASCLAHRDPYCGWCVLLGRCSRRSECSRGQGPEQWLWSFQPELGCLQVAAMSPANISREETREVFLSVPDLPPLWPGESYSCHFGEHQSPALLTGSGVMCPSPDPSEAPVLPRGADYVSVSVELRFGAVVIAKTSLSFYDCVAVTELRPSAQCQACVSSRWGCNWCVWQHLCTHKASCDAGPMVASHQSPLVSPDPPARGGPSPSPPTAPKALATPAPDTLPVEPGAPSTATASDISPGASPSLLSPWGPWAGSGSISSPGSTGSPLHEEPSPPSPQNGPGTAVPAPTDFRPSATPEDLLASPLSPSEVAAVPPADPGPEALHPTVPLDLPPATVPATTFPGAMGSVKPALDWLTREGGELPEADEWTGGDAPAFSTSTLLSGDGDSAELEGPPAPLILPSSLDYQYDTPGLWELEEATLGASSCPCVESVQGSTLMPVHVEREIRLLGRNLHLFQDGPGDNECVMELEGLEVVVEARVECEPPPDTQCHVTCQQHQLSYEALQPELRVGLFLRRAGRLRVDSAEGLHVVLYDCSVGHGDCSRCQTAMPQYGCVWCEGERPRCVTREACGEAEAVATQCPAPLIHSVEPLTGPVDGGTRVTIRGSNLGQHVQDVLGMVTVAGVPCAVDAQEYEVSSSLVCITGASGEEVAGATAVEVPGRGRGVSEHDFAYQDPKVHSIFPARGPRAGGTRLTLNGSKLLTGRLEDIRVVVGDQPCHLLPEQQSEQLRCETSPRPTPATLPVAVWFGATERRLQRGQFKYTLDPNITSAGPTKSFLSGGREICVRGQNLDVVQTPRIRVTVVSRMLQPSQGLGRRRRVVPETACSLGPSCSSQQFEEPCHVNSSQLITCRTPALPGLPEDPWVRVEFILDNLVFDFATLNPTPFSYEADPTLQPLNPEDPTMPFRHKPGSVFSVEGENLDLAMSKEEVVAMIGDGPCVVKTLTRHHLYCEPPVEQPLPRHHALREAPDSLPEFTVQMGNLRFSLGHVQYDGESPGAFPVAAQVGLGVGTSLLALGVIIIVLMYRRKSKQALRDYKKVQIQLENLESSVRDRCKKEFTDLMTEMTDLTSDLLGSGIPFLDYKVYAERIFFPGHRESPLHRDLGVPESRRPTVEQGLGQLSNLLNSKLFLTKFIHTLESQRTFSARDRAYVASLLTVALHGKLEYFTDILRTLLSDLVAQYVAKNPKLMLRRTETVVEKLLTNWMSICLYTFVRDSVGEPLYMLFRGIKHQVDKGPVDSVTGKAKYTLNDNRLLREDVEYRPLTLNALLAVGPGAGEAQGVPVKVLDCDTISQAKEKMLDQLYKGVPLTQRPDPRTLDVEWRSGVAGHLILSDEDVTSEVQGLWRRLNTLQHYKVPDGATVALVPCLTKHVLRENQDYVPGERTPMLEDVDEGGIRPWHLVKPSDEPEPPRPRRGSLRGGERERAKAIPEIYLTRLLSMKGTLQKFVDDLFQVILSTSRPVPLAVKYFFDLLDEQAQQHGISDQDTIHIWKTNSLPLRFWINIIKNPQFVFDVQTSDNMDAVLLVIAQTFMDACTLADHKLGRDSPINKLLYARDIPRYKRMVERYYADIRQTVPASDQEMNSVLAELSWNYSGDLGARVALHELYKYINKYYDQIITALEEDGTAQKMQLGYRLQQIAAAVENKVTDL

[3] = molecular target: non-tagged full-length human plexin B3 (pIRES/B3) (human) (UniProt Q9ULL4); test: as above
[4] = molecular target: T2, B3sema HA (pcDNA3.1/B3semaHA), HA-tagged sema domain of human plexin B3 (human) (UniProt Q9ULL4); test: as above
T2 sequence: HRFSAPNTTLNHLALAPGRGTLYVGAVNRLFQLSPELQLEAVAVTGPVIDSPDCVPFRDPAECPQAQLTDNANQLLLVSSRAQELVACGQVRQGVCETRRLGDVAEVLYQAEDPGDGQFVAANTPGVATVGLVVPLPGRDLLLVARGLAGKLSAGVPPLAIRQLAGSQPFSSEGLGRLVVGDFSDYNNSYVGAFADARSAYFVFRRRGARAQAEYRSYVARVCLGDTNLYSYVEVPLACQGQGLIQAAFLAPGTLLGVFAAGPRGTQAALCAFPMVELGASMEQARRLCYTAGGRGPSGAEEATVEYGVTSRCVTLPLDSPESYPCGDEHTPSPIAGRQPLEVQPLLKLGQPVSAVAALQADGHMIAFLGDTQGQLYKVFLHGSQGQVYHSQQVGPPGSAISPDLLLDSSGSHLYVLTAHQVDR

[5] = molecular target: T3, B3Δic FLAG (pFLAG/B3Δic), human plexin B3 lacking the intracellular part (human) (UniProt Q9ULL4); test: co-IP; data not shown: human B3 deletion constructs with V5-tagged mouse B3 lacking most of its intracellular part
T3 sequence: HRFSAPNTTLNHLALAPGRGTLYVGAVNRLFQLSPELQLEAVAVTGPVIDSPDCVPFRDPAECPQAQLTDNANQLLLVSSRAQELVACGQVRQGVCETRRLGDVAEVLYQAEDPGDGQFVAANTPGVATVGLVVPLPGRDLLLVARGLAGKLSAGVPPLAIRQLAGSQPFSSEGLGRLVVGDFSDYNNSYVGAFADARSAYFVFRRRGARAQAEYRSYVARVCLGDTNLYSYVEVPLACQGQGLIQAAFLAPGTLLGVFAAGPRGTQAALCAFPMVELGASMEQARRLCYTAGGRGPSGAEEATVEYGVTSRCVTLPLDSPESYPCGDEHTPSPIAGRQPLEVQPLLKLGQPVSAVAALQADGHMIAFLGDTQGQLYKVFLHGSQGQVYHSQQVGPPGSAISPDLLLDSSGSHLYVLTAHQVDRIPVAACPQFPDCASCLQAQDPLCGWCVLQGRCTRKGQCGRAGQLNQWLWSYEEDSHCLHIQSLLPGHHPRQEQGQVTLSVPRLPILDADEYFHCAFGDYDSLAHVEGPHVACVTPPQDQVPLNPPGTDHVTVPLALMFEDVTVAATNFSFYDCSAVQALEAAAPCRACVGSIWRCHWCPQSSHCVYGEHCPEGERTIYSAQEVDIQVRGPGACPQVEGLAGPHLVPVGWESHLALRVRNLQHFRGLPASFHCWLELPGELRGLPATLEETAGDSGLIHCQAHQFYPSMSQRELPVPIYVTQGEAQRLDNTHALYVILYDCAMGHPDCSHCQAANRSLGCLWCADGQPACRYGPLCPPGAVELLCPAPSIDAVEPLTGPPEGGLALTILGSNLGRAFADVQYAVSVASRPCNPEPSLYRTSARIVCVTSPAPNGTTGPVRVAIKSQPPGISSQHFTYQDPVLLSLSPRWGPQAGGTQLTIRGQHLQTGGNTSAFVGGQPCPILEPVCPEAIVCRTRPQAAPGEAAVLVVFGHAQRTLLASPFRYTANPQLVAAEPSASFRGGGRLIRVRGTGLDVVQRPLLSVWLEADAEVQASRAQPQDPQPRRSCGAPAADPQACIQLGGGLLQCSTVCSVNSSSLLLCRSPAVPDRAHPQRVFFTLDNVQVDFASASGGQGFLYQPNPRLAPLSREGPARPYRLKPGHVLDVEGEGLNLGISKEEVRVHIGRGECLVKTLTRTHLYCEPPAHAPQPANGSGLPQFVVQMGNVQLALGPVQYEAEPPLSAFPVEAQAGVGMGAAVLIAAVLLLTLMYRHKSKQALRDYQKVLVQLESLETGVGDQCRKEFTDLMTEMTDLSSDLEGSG

In the case of “EGFP-tagged full-length human plexin B3 (pEGFP-N1/B3) (from UniProt Q9ULL4 45-1909) (receptor)”, the binding [1] is reported as “binds”.

For “FLAG-tagged full-length human plexin B2 (pFLAG/B2) (from UniProt O15031 20-1838) (receptor)”, the binding [2] was “no binding” and the binding [3] was “no binding”.

“VSV-tagged full-length human plexin A1 (pcDNAVSV/A1) (from UniProt Q9UIW2 27-1896) (receptor)” was tested, and the binding [3] was “no binding”.

“VSV-tagged full-length human plexin B1 (pcDNAVSV/B1) (from UniProt O43157 20-2135) (receptor)” was tested, and the binding [3] was “no binding”.

In the case of “non-tagged full-length human plexin B3 (pIRES/B3) (from UniProt Q9ULL4 45-1909) (receptor)”, the binding [2] is reported as “binds”.

B1: B3Δic FLAG (pFLAG/B3Δic), human plexin B3 lacking the intracellular part (domain or fragment, UniProt Q9ULL4 45-1327)
chain: T3 sequence
In the case of B1, the binding [1] is reported as “binds”.

B2: B3sema V5 (pcDNA3.1/B3sema), V5-tagged sema domain of human plexin B3 (domain or fragment, UniProt Q9ULL4 45-468)
chain: T2 sequence
With B2 the binding [1] was “binds” and the binding [4] was “binds”.

B3: C-terminally V5-tagged truncated mouse plexin B3 (aa 1-1,252), lacking most of its intracellular part (pcDNA/mB3V5) (domain or fragment, UniProt Q9QY40 37-1252)
chain: FSVPNTSFNHLVLAPDQGKLYVGAVNHLFQLSPELKMESVAVTGPVIDSPDCVPFRDLAECPQAQLTDNANQLLLVSSRTQELVACGQVKQGVCEKRRLGDVTQVLYQAEDPGDGQFVAANTLGVTTVGLVVPLPGRDLLLVARGLAGKLSAGVPPLTVRQLAGPQPFSSEGLGRLVVGDFSDYNNSYVGAFSDAHSAYFVFRRRGARAQTEYRSYVARVCLRDVNLYSYVEMPLTCHGQGLIQAAFLTPDTLLGAFSAGTSQAQAALCAFPLADLDRSMEQARRLCYTTGGQGPSGMEEATVEYGVTSRCVTLPPDSPESYPCGDEHTPSPIAGRQPLEAQPLLQLGQSISAVAALQTDGHTIAFLGDTQGQLHKVFLNSSHGQVYHSQQVGPPGSAISPDLLVDSNGDHLYVLTAQQVDRILVAACPQFPNCTTCLQARDPLCGWCILQGRCTRRGECGRAAQPNHWLWSYEDNHCPYIQSLLPAQHPRQEQGQIILSVPRLPTLAMDEYFHCAFGGYNSLAQVEEPHVVCTTPPQDQMPPNPPGSDHVTLPLALMFEDVVLTATTFSFYDCSAVQALEVAAPCRACVSSLWRCHWCPQSSHCIYGEHCPEGEKAVYSAQEVDILVRGPEACPQVEGLASPQLVPVGWESHVTLHIQNLHYFQGLPALYHCWLELPGKLQKLPASLEETSRDSGLIHCQAQQFYPSMSQWELPVPIYVTRGEIQRLDNAGDLHVTLYDCAMGHPDCSHCQAANGSLSCLWCGDGQPACRYGPLCPPGAVEQLCPIPSIDVIEPLTGPPEGGLAITILGSNLGQAFNDVRNAVTVAGQPCNPDPSLYRISARIVCVTSPAPNGTAGPVQVAIKSRPPGISTQNFTYQDPVLLSLNPQWGPQAGGTQLTIHGQYLQTGGNISVFVGDQPCPIQEPVCPEAIICHTMPQTEPGEAVVLIVFGHVERKLLTTPFRYTANPQLVEAEPSVSFRGGGRVIRVRGTGLDVVWQPLLSVWLEDEPKVKALGVQAQDANPRRSCGAPAADPQACIHLESGLLQCSTLCSVNSSSLLLCHSPAVPDGALPKRVFFALDNMQVDFASASGGQGFLYQPNPRLAPLSHEGITHPYHLKPGHVLDVEGEGLNLGISKEEVQVHIGDGECLVKTLTLTHLYCEPPPQAPQPTNGSGTLPQFVVQMGNLRLALGPVQYEAESMMSTFPVEAQLGLGMGA
For B3, the binding [5] was “binds” and the binding [1] was “binds”.
